Results from US20170114145A1.
These are yes or no findings as the source states them, for the method shown. Some results given as binding are weak or reduced against the parent protein; the word gives no strength. Sequences can lack the tags named with a protein.

The chains behind the UniProt entries cited, without tags or fusion partners. Where a name states a change or a piece, a line headed by the entry shows the natural chain unless it says otherwise.
UniProt Q9ULT6: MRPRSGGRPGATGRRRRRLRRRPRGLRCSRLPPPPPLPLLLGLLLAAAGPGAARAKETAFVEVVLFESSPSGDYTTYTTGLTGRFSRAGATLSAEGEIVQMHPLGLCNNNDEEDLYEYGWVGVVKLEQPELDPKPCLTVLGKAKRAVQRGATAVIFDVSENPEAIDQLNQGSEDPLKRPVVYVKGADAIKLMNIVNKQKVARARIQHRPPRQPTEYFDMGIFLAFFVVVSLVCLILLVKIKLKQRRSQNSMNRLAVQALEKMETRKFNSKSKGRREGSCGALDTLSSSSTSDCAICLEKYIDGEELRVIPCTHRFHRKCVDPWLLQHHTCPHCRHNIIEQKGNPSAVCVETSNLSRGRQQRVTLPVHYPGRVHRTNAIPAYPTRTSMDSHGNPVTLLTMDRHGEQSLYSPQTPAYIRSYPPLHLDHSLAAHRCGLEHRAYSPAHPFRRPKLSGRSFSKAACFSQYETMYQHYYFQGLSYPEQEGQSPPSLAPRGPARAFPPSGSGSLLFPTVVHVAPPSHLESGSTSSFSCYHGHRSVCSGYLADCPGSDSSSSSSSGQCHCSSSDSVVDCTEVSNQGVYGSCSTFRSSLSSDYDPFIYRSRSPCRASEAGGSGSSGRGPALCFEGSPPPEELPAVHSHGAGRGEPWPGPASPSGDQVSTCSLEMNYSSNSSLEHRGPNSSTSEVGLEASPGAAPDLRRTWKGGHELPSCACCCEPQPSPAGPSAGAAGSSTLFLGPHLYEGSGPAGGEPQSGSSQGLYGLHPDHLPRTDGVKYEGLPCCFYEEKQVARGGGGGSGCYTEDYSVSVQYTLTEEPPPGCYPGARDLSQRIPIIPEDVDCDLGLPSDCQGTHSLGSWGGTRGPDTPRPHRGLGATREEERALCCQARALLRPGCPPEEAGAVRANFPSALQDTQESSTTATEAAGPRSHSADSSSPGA
UniProt O75581: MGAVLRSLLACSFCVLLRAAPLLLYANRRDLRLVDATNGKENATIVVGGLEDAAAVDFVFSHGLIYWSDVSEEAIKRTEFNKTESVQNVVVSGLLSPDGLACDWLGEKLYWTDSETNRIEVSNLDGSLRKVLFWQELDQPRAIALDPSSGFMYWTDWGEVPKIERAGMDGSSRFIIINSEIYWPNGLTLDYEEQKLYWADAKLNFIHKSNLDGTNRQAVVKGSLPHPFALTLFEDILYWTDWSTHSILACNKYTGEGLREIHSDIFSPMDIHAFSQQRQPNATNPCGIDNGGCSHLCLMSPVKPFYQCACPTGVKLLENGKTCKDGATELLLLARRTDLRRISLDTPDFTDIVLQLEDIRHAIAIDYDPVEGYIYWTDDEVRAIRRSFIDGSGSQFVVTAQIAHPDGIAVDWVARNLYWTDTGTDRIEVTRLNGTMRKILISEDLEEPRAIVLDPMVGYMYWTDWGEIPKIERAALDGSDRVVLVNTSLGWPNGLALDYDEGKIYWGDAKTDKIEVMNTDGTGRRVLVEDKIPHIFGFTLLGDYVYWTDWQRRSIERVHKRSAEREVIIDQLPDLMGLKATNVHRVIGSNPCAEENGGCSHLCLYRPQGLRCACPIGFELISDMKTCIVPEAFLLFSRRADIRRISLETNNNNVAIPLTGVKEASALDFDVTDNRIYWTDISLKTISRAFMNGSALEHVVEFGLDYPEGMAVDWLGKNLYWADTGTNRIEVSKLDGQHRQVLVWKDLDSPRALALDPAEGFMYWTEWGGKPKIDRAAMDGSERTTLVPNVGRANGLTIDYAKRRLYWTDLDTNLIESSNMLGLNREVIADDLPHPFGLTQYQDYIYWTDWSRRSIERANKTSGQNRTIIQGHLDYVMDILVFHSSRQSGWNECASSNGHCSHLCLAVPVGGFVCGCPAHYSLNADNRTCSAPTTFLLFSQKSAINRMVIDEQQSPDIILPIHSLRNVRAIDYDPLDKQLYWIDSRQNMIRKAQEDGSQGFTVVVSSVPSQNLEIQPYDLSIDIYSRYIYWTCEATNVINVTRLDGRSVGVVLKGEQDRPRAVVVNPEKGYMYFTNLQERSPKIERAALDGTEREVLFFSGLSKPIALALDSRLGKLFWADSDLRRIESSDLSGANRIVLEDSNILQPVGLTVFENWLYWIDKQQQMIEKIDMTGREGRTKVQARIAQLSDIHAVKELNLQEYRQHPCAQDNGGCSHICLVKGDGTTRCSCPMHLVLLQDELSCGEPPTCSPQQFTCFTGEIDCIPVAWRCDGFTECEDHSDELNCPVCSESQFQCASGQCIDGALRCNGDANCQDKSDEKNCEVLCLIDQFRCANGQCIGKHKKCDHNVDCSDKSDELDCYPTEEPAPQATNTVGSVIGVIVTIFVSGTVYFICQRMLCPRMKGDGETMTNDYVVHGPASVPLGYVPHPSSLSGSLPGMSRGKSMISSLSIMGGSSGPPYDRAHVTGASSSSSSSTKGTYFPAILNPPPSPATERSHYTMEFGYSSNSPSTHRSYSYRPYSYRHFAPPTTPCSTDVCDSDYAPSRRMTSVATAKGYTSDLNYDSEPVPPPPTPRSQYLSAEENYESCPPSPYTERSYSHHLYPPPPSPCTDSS

Legend:
[1] = target: T1, RNF43-Fc (Homo sapiens (Human)) (UniProt Q68DV7); experiment: ELISA, plate-bound RNF43-Fc, LGR5-Fc preincubated with R-spondin 1/2/3/4 or Norrin, anti-FLAG detection
T1 sequence: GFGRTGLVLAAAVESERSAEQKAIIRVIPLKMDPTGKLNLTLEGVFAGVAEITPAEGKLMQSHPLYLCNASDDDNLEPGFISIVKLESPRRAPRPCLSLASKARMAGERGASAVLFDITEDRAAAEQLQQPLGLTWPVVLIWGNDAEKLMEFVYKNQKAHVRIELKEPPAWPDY

[2] = target: T1, RNF43-Fc (Homo sapiens (Human)); experiment: ELISA: hRNF43-Fc coated at 4 ug/mL, hLGR5-Fc 1 ug/mL preincubated with or without 1 ug/mL R-spondin 1/2/3/4 or 0.5 ug/mL Norrin, bound hLGR5-Fc detected with anti-FLAG mAb (ternary complex LGR5 / ligand / RNF43)
[3] = target: ZNRF3-Fc (Homo sapiens (Human)) (UniProt Q9ULT6); experiment: ELISA, plate-bound ZNRF3-Fc, LGR5-Fc preincubated with R-spondin 1/2/3/4 or Norrin, anti-FLAG detection
[4] = target: LRP6-Fc (Homo sapiens (Human)) (UniProt O75581); experiment: ELISA, plate-bound LRP6-Fc, LGR5-Fc preincubated with R-spondin 1/2/3/4 or Norrin, anti-FLAG detection

Measured: binding

B1: recombinant human LGR5 ectodomain-IgG-Fc fusion (Fc fusion, not shown: a dimerising Fc or GST)
chain: GSSPRSGVLLRGCPTHCHCEPDGRMLLRVDCSDLGLSELPSNLSVFTSYLDLSMNNISQLLPNPLPSLRFLEELRLAGNALTYIPKGAFTGLYSLKVLMLQNNQLRHVPTEALQNLRSLQSLRLDANHISYVPPSCFSGLHSLRHLWLDDNALTEIPVQAFRSLSALQAMTLALNKIHHIPDYAFGNLSSLVVLHLHNNRIHSLGKKCFDGLHSLETLDLNYNNLDEFPTAIRTLSNLKELGFHSNNIRSIPEKAFVGNPSLITIHFYDNPIQFVGRSAFQHLPELRTLTLNGASQITEFPDLTGTANLESLTLTGAQISSLPQTVCNQLPNLQVLDLSYNLLEDLPSFSVCQKLQKIDLRHNEIYEIKVDTFQQLLSLRSLNLAWNKIAIIHPNAFSTLPSLIKLDLSSNLLSSFPITGLHGLTHLKLTGNHALQSLISSENFPELKVIEMPYAYQCCAFGVCENAYKISNQWNKGDNSSMDDLHKKDAGMFQAQDERDLEDFLLDFEEDLKALHSVQCSPSPGPFKPCEHLLDGWLIR
binds: all assays above
